Laboratory results: PubChem BioAssay AID1159584 (Peter MacCallum Cancer Centre, 2016)

Purpose: 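Genes whose loss is lethal only together with E-cadherin loss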 (primary screen)
System: human MCF10A breast epithelial cells, parental and CDH1-null
Reagents: siRNA against human genes
Measured: 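Cell viability by CellTiter-Glo ATP luminescence, each line scaled to the mean of mock wells across plates, then CDH1-null over parental ratio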
Direction: CDH1-null / parental viability ratio: higher = CDH1-null cells survive relatively better than parental; CDH1-null viability vs mock: higher = more viable CDH1-null cells; parental viability vs mock: higher = more viable parental cells
This is an unselected part of about 18,000 reagents tested. Not given: the amount of reagent, the time to read-out.

no.	gene	CDH1-null / parental viability ratio	CDH1-null viability vs mock (fraction of mock)	parental viability vs mock (fraction of mock)
1	ATP23	0.73	0.72	0.98
2	GSTT1 (glutathione S-transferase theta 1)	0.97	1.02	1.05
3	QPRT (quinolinate phosphoribosyltransferase)	1.64	0.97	0.59
4	MFF (mitochondrial fission factor)	0.9	0.88	0.98
5	NCAPH2 (non-SMC condensin II complex subunit H2)	0.79	0.69	0.87
6	HACL1 (2-hydroxyacyl-CoA lyase 1)	0.79	0.78	0.99
7	CPLANE1 (ciliogenesis and planar polarity effector complex subunit 1)	0.94	0.78	0.83
8	PLA2G12B (phospholipase A2 group XIIB)	0.86	0.55	0.64
9	CACNA1G (calcium voltage-gated channel subunit alpha1 G)	1.36	0.76	0.56
10	CLEC18C (C-type lectin domain family 18 member C)	1.15	0.9	0.78
11	MSL3 (MSL complex subunit 3)	0.77	0.6	0.78
12	MAPK7 (mitogen-activated protein kinase 7)	0.97	0.92	0.95

No new results follow: entries from further up.
no.	gene	CDH1-null / parental viability ratio	CDH1-null viability vs mock (fraction of mock)	parental viability vs mock (fraction of mock)
4	MFF (mitochondrial fission factor)	0.9	0.88	0.98
5	NCAPH2 (non-SMC condensin II complex subunit H2)	0.79	0.69	0.87
6	HACL1 (2-hydroxyacyl-CoA lyase 1)	0.79	0.78	0.99
7	CPLANE1 (ciliogenesis and planar polarity effector complex subunit 1)	0.94	0.78	0.83

Further reagents:
no.	gene	CDH1-null / parental viability ratio	CDH1-null viability vs mock (fraction of mock)	parental viability vs mock (fraction of mock)
13	PPME1 (protein phosphatase methylesterase 1)	1.1	1.09	0.99
14	FOXI2 (forkhead box I2)	0.79	0.68	0.86
15	FGFBP1 (fibroblast growth factor binding protein 1)	1.16	0.51	0.44
16	DNAH11 (dynein axonemal heavy chain 11)	0.93	0.82	0.88
17	ZC3HAV1 (zinc finger CCCH-type containing, antiviral 1)	0.87	0.78	0.9
18	SUFU (SUFU negative regulator of hedgehog signaling)	0.93	0.8	0.86
19	VAX2 (ventral anterior homeobox 2)	0.99	0.9	0.91
20	RNF4 (ring finger protein 4)	0.9	0.88	0.98
21	ATP6AP1 (ATPase H+ transporting accessory protein 1)	1.2	0.6	0.5
22	RGMB (repulsive guidance molecule BMP co-receptor b)	1.1	0.92	0.84
23	GPC4 (glypican 4)	0.88	0.74	0.84
24	PRIMPOL (primase and DNA directed polymerase)	1.03	0.78	0.76
25	OR10K2 (olfactory receptor family 10 subfamily K member 2)	1.13	0.86	0.76
26	DCAF16 (DDB1 and CUL4 associated factor 16)	0.97	0.72	0.74
27	BCLAF3 (BCLAF1 and THRAP3 family member 3)	1.13	1.06	0.94
28	CAPNS2 (calpain small subunit 2)	1.1	1.06	0.96
